The list shows a part of the results. These are further read-outs of the screen, such as a control signal, another cell line or another target. No call is given for them. Compounds called inactive in the main read-out are mostly missing here. Words in brackets tell the shape of the fitted curve; partial curves, single points and poor fits give uncertain potencies.
Assay: qHTS Assay for Lipid Storage Modulators in Drosophila S3 Cells;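 on cell number change: cells counted by Cell Tracker Red CMTPX staining in the red channel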
Settings: BODIPY lipid droplet fluorescence, 18-24 h; for cell number change: measured here: cell count max response, cells fed with added oleic acid
Summary of the method: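 Laser-scanning cytometry quantifies lipid droplet accumulation (500–530 nm total intensity; droplet/cell object ratio) in oleic acid-fed (400 uM added) Drosophila S3 cells treated with a concentration series. 20 uM Triacsin C defined 100% inhibition.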

[1] = measured here: cell number channel AC50, cells fed with added oleic acid
[2] = measured here: lipid fluorescence (Fed channel) AC50, cells fed with added oleic acid

Row | Structure (SMILES) | cell number change [%] | AC50 [1] | AC50 [2]
1 | COC(=O)c1ccc(CN2CCN(CC=C(C)C)C(CCO)C2)cc1 (stereo not given) | 18.5 |  | 
2 | Cc1cccc(NS(=O)(=O)c2ccc(C)c(NS(=O)(=O)c3cccs3)c2)c1 | -55.6 | 32.6 µM [falling, single point] | 
3 | COCCCN1C(=O)N(c2ccc(F)cc2)C(=O)C1CC(=O)Nc1ccc(OC)cc1 (stereo not given) | 27.9 |  | 
4 | CCOc1ccc(S(=O)(=O)NCC2CCCO2)cc1 (stereo not given) | 24.6 |  | 18.4 µM [rising, single point]
5 | COc1cccc(-n2nnc3c(=O)n(CC(=O)Nc4cc(C)on4)cnc32)c1 | -9.91 |  | 0.13 µM [falling, full curve, poor fit]
6 | O=C(CSc1nnc(-c2ccccc2)n1Cc1ccco1)Nc1ccc2c(c1)OCCO2 | -14.7 |  | 0.00651 µM [falling, full curve, poor fit]
7 | Fc1cccc(CN(C2=NCCN2)c2c(Cl)cccc2Cl)c1 | -8.6 |  | 0.731 µM [rising, single point]
8 | Cc1sc2nc(-c3ccccn3)[nH]c(=O)c2c1-c1ccccc1 | -64 | 14.6 µM [falling, partial curve, poor fit] | 14.6 µM [falling, partial curve]
9 | Cc1cc(C2(c3ccc(O)c(C)c3)OC(=O)c3ccccc32)ccc1O | -18 |  | 6.51 µM [rising, single point]
10 | COC(=O)c1nn(-c2cccc(C(F)(F)F)c2)c(=O)cc1Sc1ccccn1 | 175 |  | 29.1 µM [rising, single point]
11 | Cc1ccc(NC(=O)/C(=C/c2cccc(Br)c2)NC(=O)c2ccco2)cc1 | 47.9 | 2.59 µM [rising, partial curve, poor fit] | 6.51 µM [rising, partial curve]
12 | O=C(N=Nc1c(O)n(Cc2ccccc2)c2ccccc12)c1ccc(O)cc1 | 5.49 |  | 
13 | Cc1sc2nc(CN3CCCC3)nc(N3CCC(C(N)=O)CC3)c2c1C |  | 0.164 µM [falling, full curve, poor fit] | 
14 | O=c1c2cc(NC(=S)NC3CCCCC3)ccc2nc2n1CCCCC2 |  | 6.51 µM [rising, single point] | 
15 | CCOC(=O)c1c(NC(=O)CSc2nnnn2-c2ccc3c(c2)OCCO3)sc(C)c1C | 20.8 |  | 1.46 µM [rising, full curve]
16 | O=C(CN1C(=O)NC(Cc2c[nH]c3ccccc23)C1=O)NC1CCCCC1 (stereo not given) | -0.778 |  | 2.59 µM [rising, full curve]
17 | O=C(Cc1ccccc1)NC(NNc1ccccc1)(C(F)(F)F)C(F)(F)F | -22.5 |  | 18.4 µM [falling, partial curve, poor fit]
18 | COc1cc(C(=O)NCC(=O)N/N=C/c2ccccn2)cc(OC)c1OC | -60.3 | 29.1 µM [falling, single point] | 25.9 µM [falling, partial curve]
19 | Cc1ccc(C)c(NC(=O)c2cc3ccccn3n2)c1 | 14.7 | 1.46 µM [rising, partial curve] | 2.59 µM [rising, partial curve]
20 | COc1ccc(S(=O)(=O)N2CCCCCC2)cc1C(=O)NCCc1ccccc1 | -8.52 |  | 

From compound 2 to 14, as listed above:
Row | Structure (SMILES) | cell number change [%] | AC50 [1] | AC50 [2]
2 | Cc1cccc(NS(=O)(=O)c2ccc(C)c(NS(=O)(=O)c3cccs3)c2)c1 | -55.6 | 32.6 µM [falling, single point] | 
3 | COCCCN1C(=O)N(c2ccc(F)cc2)C(=O)C1CC(=O)Nc1ccc(OC)cc1 (stereo not given) | 27.9 |  | 
4 | CCOc1ccc(S(=O)(=O)NCC2CCCO2)cc1 (stereo not given) | 24.6 |  | 18.4 µM [rising, single point]
5 | COc1cccc(-n2nnc3c(=O)n(CC(=O)Nc4cc(C)on4)cnc32)c1 | -9.91 |  | 0.13 µM [falling, full curve, poor fit]
6 | O=C(CSc1nnc(-c2ccccc2)n1Cc1ccco1)Nc1ccc2c(c1)OCCO2 | -14.7 |  | 0.00651 µM [falling, full curve, poor fit]
7 | Fc1cccc(CN(C2=NCCN2)c2c(Cl)cccc2Cl)c1 | -8.6 |  | 0.731 µM [rising, single point]
8 | Cc1sc2nc(-c3ccccn3)[nH]c(=O)c2c1-c1ccccc1 | -64 | 14.6 µM [falling, partial curve, poor fit] | 14.6 µM [falling, partial curve]
9 | Cc1cc(C2(c3ccc(O)c(C)c3)OC(=O)c3ccccc32)ccc1O | -18 |  | 6.51 µM [rising, single point]
10 | COC(=O)c1nn(-c2cccc(C(F)(F)F)c2)c(=O)cc1Sc1ccccn1 | 175 |  | 29.1 µM [rising, single point]
11 | Cc1ccc(NC(=O)/C(=C/c2cccc(Br)c2)NC(=O)c2ccco2)cc1 | 47.9 | 2.59 µM [rising, partial curve, poor fit] | 6.51 µM [rising, partial curve]
12 | O=C(N=Nc1c(O)n(Cc2ccccc2)c2ccccc12)c1ccc(O)cc1 | 5.49 |  | 
13 | Cc1sc2nc(CN3CCCC3)nc(N3CCC(C(N)=O)CC3)c2c1C |  | 0.164 µM [falling, full curve, poor fit] | 
14 | O=c1c2cc(NC(=S)NC3CCCCC3)ccc2nc2n1CCCCC2 |  | 6.51 µM [rising, single point] | 

Remaining list, next part

Row | Structure (SMILES) | cell number change [%] | AC50 [1] | AC50 [2]
21 | CCOC(=O)CNC(=O)CSc1nc(C)cc(C)c1C#N | 7.04 |  | 
22 | Cc1cccc(NC(=O)c2ccc([N+](=O)[O-])cc2Cl)n1 | 17.2 |  | 0.651 µM [falling, full curve, poor fit]
23 | NC(=O)N/N=C/c1ccccc1OC(=O)c1ccccc1Br | -49.4 | 29.1 µM [falling, single point] | 18.4 µM [falling, single point]
24 | O=C(Nc1ccc(Cl)cc1)C(Cl)C(=O)c1ccccc1 (stereo not given) | 27.9 | 0.259 µM [rising, full curve, poor fit] | 
25 | C=CCn1c(C)cc(C(=O)COC(=O)CNC(=O)c2ccccc2)c1C | -1.79 |  | 0.0164 µM [falling, full curve, poor fit]
26 | COC(=O)CSc1ccc2nnc(CCNS(=O)(=O)c3ccccc3)n2n1 | -19.2 | 2.59 µM [falling, single point] | 
27 | COC(=O)CN(n1cnnc1)S(=O)(=O)c1ccc(C)cc1 | -2.12 |  | 0.146 µM [falling, full curve, poor fit]
28 | COc1ccc(Cl)cc1NC(=O)CSc1nc(NS(=O)(=O)c2ccccc2)cc(=O)[nH]1 | -27.6 | 1.84 µM [falling, partial curve] | 
29 | Cn1nnnc1SCC(=O)Nc1ccccc1[N+](=O)[O-] | 14.5 |  | 1.84 µM [rising, partial curve, poor fit]
30 | Cc1ccc(NC(=O)CNC(=O)CC23CC4CC(CC(C4)C2)C3)c(O)c1 | -58.1 | 2.06 µM [falling, full curve, poor fit] | 7.31 µM [falling, partial curve]
31 | Cn1c(=O)c(NC(=O)c2ccccc2)c2n(c1=S)CCCCC2 |  |  | 0.461 µM [falling, single point]
32 | O=C(Nc1ccc(Oc2nnc(-c3ccccc3)c3ccccc23)cc1)c1ccccc1 | 14.8 |  | 
33 | COc1ccc(C(=O)COC(=O)CCc2nc3ccccc3[nH]c2=O)cc1Br | 17.2 |  | 
34 | CCC(=O)Nc1cccc(-c2nc3ccccc3o2)c1 |  |  | 0.651 µM [rising, single point]
35 | CCOC(=O)c1cnc(N)nc1C(F)(F)F | 32.4 |  | 14.6 µM [rising, partial curve, poor fit]
36 | Cc1cc2cccc(C)c2nc1SCC(=O)N(C)c1nc(-c2ccccc2)cs1 | 17.8 |  | 
37 | CCNC(=O)CN1C(=O)NC2(CCOc3ccccc32)C1=O (stereo not given) | 16.8 |  | 6.51 µM [falling, single point]
38 | CC(C)(C)C(=O)/C(=C/c1cccc([N+](=O)[O-])c1)n1cncn1 | -83.8 | 20.6 µM [falling, single point] | 20.6 µM [falling, single point]
39 | CCOC(=O)c1c(C)[nH]c(C(=O)COC(=O)COc2ccc(OC)cc2)c1C | 9.5 |  | 20.6 µM [rising, partial curve]
40 | Cc1nc2ccccc2c(=O)n1-c1cccc(NC(=O)c2cccs2)c1 | -17.4 |  | 

Row | Structure (SMILES) | cell number change [%] | AC50 [1] | AC50 [2]
41 | CC1C/C(=C\c2cccnc2)C(=O)/C(=C/c2cccnc2)C1 (stereo not given) |  |  | 5.8 µM [falling, full curve]
42 | CCc1ccc(NC(=O)CN(c2ccc(OC)cc2)S(=O)(=O)c2c(C)nn(C)c2C)cc1 | 1.47 |  | 
43 | O=[n+]1cc(-c2cccc3ccccc23)n([O-])c2c1CCC2 | -104 | 23.1 µM [falling, single point] | 23.1 µM [falling, single point]
44 | COc1cccc(Cl)c1NC(=O)N1CCc2c([nH]c3ccccc23)C1C(F)(F)F (stereo not given) | 13.1 | 0.00517 µM [rising, full curve, poor fit] | 5.17 µM [rising, partial curve]
45 | CC(=O)Nc1cccc(OCC(=O)Nc2ccc(F)cc2)c1 | 1.75 |  | 29.1 µM [rising, single point]
46 | O=C(NCCN1CCOCC1)c1ccc([N+](=O)[O-])cc1[N+](=O)[O-] | 8.39 |  | 7.31 µM [rising, full curve, poor fit]
47 | Cc1ccc(S(=O)(=O)/C(C#N)=C/c2c(N3CCOCC3)nc3ccccn3c2=O)cc1 |  |  | 0.58 µM [rising, single point]
48 | COc1cc([N+](=O)[O-])ccc1NC(=O)CCCOc1cccc(C)c1 | 19.8 |  | 
49 | CCSc1nnc2n(-c3ccc(OC)cc3)c(=O)c3c4c(sc3n12)CCCC4 | 74.1 | 3.66 µM [rising, partial curve] | 3.66 µM [rising, partial curve]
50 | c1ccc(Nc2nc(NCC3CCCO3)c3ccccc3n2)cc1 (stereo not given) | -58.5 | 32.6 µM [falling, single point] | 32.6 µM [falling, partial curve, poor fit]
51 | Cc1cccc(NC(=O)N2CCCC2C(=O)NCc2cccs2)c1 (stereo not given) | 33.5 | 18.4 µM [rising, partial curve, poor fit] | 
52 | Cn1c(/C=N/O)nc2ccccc21 | 0.534 |  | 
53 | Oc1ccc2ccccc2c1C=Nc1cc(C(F)(F)F)ccc1N1CCCC1 | -1.27 |  | 29.1 µM [falling, single point]
54 | O=C(Cc1cccc2ccccc12)NC(NC(=S)Nc1ccccc1Cl)C(Cl)(Cl)Cl (stereo not given) | -35.4 | 7.31 µM [falling, partial curve, poor fit] | 
55 | CCN(CC)CCCOc1ccc(C)cc1Br | -31.4 | 0.0092 µM [falling, full curve, poor fit] | 3.66 µM [falling, partial curve]
56 | CCOC(=O)c1c(NC(=O)C(C)N2CCN(C(=O)c3ccco3)CC2)sc2c1CCCC2 (stereo not given) | -138 | 18.4 µM [falling, single point] | 29.1 µM [falling, single point]
57 | Cc1ccc(NC(=O)c2onc(C)c2Cl)cc1 | 29.6 |  | 14.6 µM [rising, single point]
58 | CCN(CC(=O)Nc1cc(S(=O)(=O)N2CCCCC2)ccc1C)Cc1ccccc1 | 53.5 | 16.4 µM [rising, single point] | 
59 | COc1ccc(CNC(=O)c2cc(C(=O)C3CC3)c[nH]2)cc1 | 3.29 |  | 0.146 µM [rising, single point]
60 | CCC(C)n1cnc2c(=O)oc3ccccc3c21 (stereo not given) | 10.9 |  | 20.6 µM [rising, partial curve, poor fit]

Source: PubChem BioAssay AID2685 (National Center for Advancing Translational Sciences (NCATS), 2010)
